Assay results reported in PubChem BioAssay AID1794844 (National Center for Advancing Translational Sciences (NCATS), 2023).
Out of some 2,800 compounds screened, fewer than 10 were called active. Not shown: some 7% with an inconclusive outcome. Calls follow the shape of the dose curve; as a rule, active = well fitted inhibition curve with a large enough effect; inconclusive = small, poorly fitted or top-dose-only effect; inactive = no such curve, though single readings can be large or run the other way. Some of the results follow.

Amino acid sequences for entries named in this document (tags omitted). A change or cut given only in a name is not applied to a line headed by its entry.
UniProt C7C422: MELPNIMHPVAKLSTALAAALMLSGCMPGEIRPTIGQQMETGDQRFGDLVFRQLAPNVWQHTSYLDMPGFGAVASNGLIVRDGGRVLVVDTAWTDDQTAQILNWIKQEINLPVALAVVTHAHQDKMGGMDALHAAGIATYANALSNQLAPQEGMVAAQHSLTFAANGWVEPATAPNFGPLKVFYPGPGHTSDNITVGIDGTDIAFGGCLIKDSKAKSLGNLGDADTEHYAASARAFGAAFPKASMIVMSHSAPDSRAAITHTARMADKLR

Target: Metallo-beta-lactamase type 2 (Klebsiella pneumoniae) (UniProt C7C422)
Test: qHTS to identify inhibitors of the New Delhi Metallo-beta-lactamase (NDM): Nitrocefin screen against the machine-based learning selections. Also: % of control where 0% means no effect.
Details: NDM-1 enzyme, nitrocefin hydrolysis, absorbance 485 nm; activity, negative = inhibition: at the top concentration
Description: Assay Submitter (PI): James Inglese Ph.D., Patricia Dranchak Ph.D., Mahesh Aitha Ph.D. Assay Development and Screening Technology Laboratory (ADST) National Center for Advancing Translational Sciences (NCATS), Rockville, MD National Institute of Health (NIH), Bethesda, Maryland The metallo-beta-lactamases (MBL) are a main antibiotic resistance mechanism evolved by bacteria. There is an urgent clinical need for MBL inhibitors to mitigate this growing threat. To support a machine-based learning study, qHTS has been used to experimentally test inhibitors identified by prediction tools.
PROTOCOL TABLE (as described by Inglese et al., 2007) SEQUENCE No. (e.g., 1, 2, 3, etc.); […] (e.g., enzyme, Incubation, Reagent, etc.); VALUE; DESCRIPTION Primary Screen 1; NDM-1; 4 uL of 3 nM enzyme [2 nM final] in 50 mM HEPES (pH 7.0), 1 uM […], 0.01% Tween20; Use BioRaptr to dispense into two sets of Aurora black, clear bottom high base 1536-well plates 2; Compounds; 23 nL; Use Pin Tool (Wako) to transfer DMSO control and library compounds in DMSO 3; Incubate; >30 min 4a; Reagent; 2 uL of 50 uM nitrocefin [16.7 uM final] to one set of assay plates 4b; Reagent; 2 uL of 150 uM meropenem [50 uM final] to second set of assay plates 5a; Incubate; 15 min 5b; Incubate; 30 min 6a; Detector; Absorbance at 485 nm (bandwidth = 5 nm, 25 flashes/well) on Tecan Infinity 6b; Detector; Absorbance at 300 nm (bandwidth = 5 nm, 25 flashes/well) on Tecan Infinity NOTES (numbers refer to sequence above) 1; Column 1 of each plate received assay buffer without enzyme and columns 2-48 received enzyme for a final assay concentration of 2 nM. 2; Control plate contained DMSO in columns 1, 2, 3, and 4. 3; Compound interaction with enzyme. 4; Nitrocefin and meropenem substrates were prepared in the same assay buffer as step 1 for a final assay concentration of 16.7 uM and 50 uM, respectively, and added to all wells across respective sets of assay plates. 5; Default reader settings were applied for absorbance read at 485 nm (nitrocefin) or 300 nm (meropenem), bandwidth = 5 nm, 25 flashes/well. References: Inglese J, Shamu CE, Guy RK. 2007. Reporting data from high-throughput screening of small-molecule libraries. Nat Chem Biol. doi:10.1038/nchembio0807-438 Yasgar A, Shinn P, Jadhav A, Auld D, Michael S, Zheng W, Austin CP, Inglese J, Simeonov A. 2008. Compound Management for Quantitative High-Throughput Screening. J Lab Autom 13:79 - 89. doi:10.1016/j.jala.2007.12.004

activity, negative = inhibition, inactive:
COCC(=O)Nc1nc2c(s1)C[C@@H]1[C@](C)(CO)[C@H](O)CC[C@@]1(C)[C@@H]2CC(=O)NCc1cccnc1 1.09%
CN1[C@@H](CCC(=O)N2CCOCC2)CNC(=O)[C@@H]2[C@H]1CCN2Cc1cccc(OC(F)(F)F)c1 -10.5%
Cc1ccc(NC(=O)N[C@@H]2C=C(C(=O)N[C@H](CC(C)C)C(N)=O)C[C@@H](O)[C@@H]2O)cc1 2.2% [at 57.5 µM]
Cc1[nH]c2c(c1C(=O)N1CCCC(CCc3ccc(F)cc3)C1)C(=O)CCC2 (configuration not stated) -1.72%
COCCCNc1ccc(C(=O)N2CCC(CN3CCCC3=O)CC2)cn1 2.58%
Cc1ccc(C(c2cccnc2)n2cc(-c3cncnc3)nn2)cc1C (configuration not stated) -3.58%
CCC1(N2CCN(C(=O)CCc3c[nH]c4ccccc34)CC2)CCN(C(=O)NC)C1 (configuration not stated) 3.42%
CCOc1ccc2c(n1)CCN(C(=O)Nc1cc(C)cc(C)c1)C2 4.94%
O=C1CC(c2ccccc2)N(C(=O)C2CC2)CCCN(C(=O)NCc2ccccc2)CCN1 (configuration not stated) 1.82%
NC(=O)c1ccc(O[C@@H]2COCC[C@H]2NC(=O)Cc2ccc(O)cc2)cc1 -1.07%
Cc1ccccc1-c1cc(O)c2c(c1)CNCCO2 -6.93%
COc1ccc(NC(=O)Cc2c[nH]c3ncc(-c4ccccc4)cc23)cc1 -5.41% [at 57.5 µM]
CN1c2cccnc2CN(Cc2ccccn2)CC[C@H]1CO 14% [at 57.5 µM]
COc1ccnc(CN2CCC3(CC2)CN(CCOc2ccccc2)C(=O)O3)c1OC 0.365%
CC(c1ccc(-c2ccc(CC(=O)O)cn2)cc1)N1CCCCC1 (configuration not stated) 6.38%
COCc1cc(C[C@@H]2CC[C@H](O)[C@@H](CNC(=O)C(C)(C)C)O2)no1 1.65% [at 57.5 µM]
CNC(=O)c1cc(-c2ccccc2O)cc2c1OCCN2Cc1cccnc1 -8.06% [at 57.5 µM]
CN1c2cc(C(=O)N3CCN(c4ccc(F)cc4)CC3)ccc2C(=O)N2CCCCCC21 (configuration not stated) -2.29%
O=C1NCC2(CCCN(C(=O)CCc3ccc(=O)[nH]n3)C2)O1 (configuration not stated) -0.727%
O=C(C[C@@H]1O[C@H](CNC(=O)c2ccccc2)[C@@H](O)[C@H]1O)Nc1ccccc1 -12.3% [at 57.5 µM]
Cc1cccc(CN2CCOc3c(O)cc(-c4ccccc4C)cc3C2)n1 -2.29%
O=C(Cc1c[nH]c2ncc(-c3ccccc3)cc12)NCCCn1ccnc1 -11.4% [at 57.5 µM]
CNC1CCN(c2ccc(-c3nc(CCCc4ccccc4)no3)cn2)CC1 3.3%
O=C(Cc1ccccc1F)N1CCC(Oc2ncccc2C(=O)N2CCCCC2)C1 (configuration not stated) 0.899%
CC1(CNC(=O)c2cccs2)CCOCC1 -4.47%
Cc1nnc([C@H]2CCN(C3CCN(C)CC3)C2)o1 -9.47% [at 76.7 µM]
CC(=O)N1CCN(C(=O)c2nc(-c3ccccc3)cs2)CC(O)C1 (configuration not stated) -0.806%
Cc1ccc2c(C)c(C(=O)N3CC[C@H](O)[C@@H](O)C3)oc2c1 10.4%
CN1CCCN(C[C@@H]2CN(C(=O)c3ccnn3C)C[C@@H]2CO)CC1 -1.01%
O=C(Cc1c[nH]c2ncc(-c3cccnc3)cc12)NC1CC1 -9.07% [at 76.7 µM]
COc1ccc(CNC(=O)CC[C@@H]2CNC(=O)[C@@H]3C[C@H](NCc4ccc(N(C)C)cc4)CN23)cc1 3.36%
Nc1ccc2ncnc(N3CCCCC3)c2c1 8.2%
Cc1nn(-c2ccccn2)c(C)c1[C@@H]1C=C[C@@H](NC(=O)c2ccco2)C1 9.13% [at 57.5 µM]
COc1ccc(CN2CCNc3cc(Nc4ccccc4)ncc3C2)cc1O 8.33% [at 57.5 µM]
O=C1CO[C@H](c2ccc(NC(=O)C3CCOCC3)cc2)[C@@H](CO)N1 2.38% [at 57.5 µM]
O=C(CSc1ccncc1)N1CCN2C(=O)N(Cc3ccccc3)C(=O)[C@H]2C1 6.82% [at 57.5 µM]
COCc1cc(=O)n(CC(=O)Nc2cccc(Cl)c2)c(N2CCOCC2)n1 6.38%
COc1ccc(CN(C)Cc2ccncc2C)c(OCC(O)CN2CCCC2)c1 (configuration not stated) 1.27%
COc1ccc(NC(=O)Cn2c(N(C)Cc3ccccc3)nc(C)cc2=O)cc1Cl 5.16%
COc1cc2c(cc1OC)C(C[C@H]1CN(C(=O)c3ccc(N(C)C)cc3)CC[C@H]1CC(=O)O)=NCC2 7.93%
CC(C)CN(C)C(=O)c1cc(-c2cnn(C(C)C)c2)nc2cc(F)ccc12 -1.69%
OCc1ccc(-c2cc(-c3cccnc3)c3cncn3c2)cc1 31.1% [at 57.5 µM]
O=C(c1ccccc1)N1CCC(c2nn(-c3ccccc3)c(=O)[nH]2)CC1 2.66%
COc1ccc2nc3n(c2c1)[C@@H](CNCc1ccccc1)COC3 -1.67% [at 57.5 µM]
O=C1NC[C@@H](CCC(=O)N2CCc3ccccc32)N2C[C@@H](NCc3ccc(CO)o3)C[C@@H]12 -3%
CCCCCC(=O)Nc1nc2c(s1)C[C@@H]1[C@](C)(CO)[C@H](O)CC[C@@]1(C)[C@@H]2CC(=O)NCc1cc(F)cc(F)c1 -16.9%
CN1CCOc2c(C(=O)NCc3cccnc3)cc(-c3ccccc3O)cc21 0.182% [at 57.5 µM]
Cc1ccccc1-c1cnc2n[nH]c(-c3ccccc3)c2n1 15% [at 76.7 µM]
C[S+](=O)([O-])Nc1cccc(Nc2ncc(-c3cccc(F)c3)c3c2OCC3)c1 17.6% [at 57.5 µM]
OC1(CNCc2csc3ccc(Cl)cc23)CNCCOC1 (configuration not stated) -2.38%
CS(=O)(=O)N1CCc2ccc(C(=O)NCCN3CCc4ccccc4C3)cc21 -24.1%
O=C(Nc1cccc(C(F)(F)F)c1)c1cnc2c(c1)N(Cc1ccccc1)CCC2 5.71% [at 57.5 µM]
Cc1ccc(C)c(-c2cc(C(=O)N3CCCC3c3nncn3C(C)C)[nH]n2)c1 (configuration not stated) 2.36%
COc1ccc(C[C@H](NC(=O)[C@@]2(O)C[C@@H](O)[C@H](O)[C@@H](NC(=O)CS(=O)(=O)c3ccccc3)C2)C(N)=O)cc1 -1.87%
O=C(NC1CCN(c2cc(-c3ccc(F)cc3)[nH]n2)CC1)c1cccc2[nH]ccc12 -6.2%
Cc1nc(CN2CCN(c3ncc(F)c(N(C)C)n3)CC2)cs1 -10.7%
O=C(O)c1cccc(-c2n[nH]c3c2CC(=O)N(CC2CCOCC2)C3)c1 -18% [at 57.5 µM]
C=CCN1CCN(C(=O)[C@@H]2Cc3c[nH]c4cccc(c34)[C@H](CC(C)C)N2)CC1 3.27% [at 57.5 µM]
Cc1ccc2c(c1)N1C(=O)OC[C@@H]1CCN(C(=O)Nc1ccccc1)C2 -1.88% [at 57.5 µM]
CCOCC(=O)N[C@H]1CN(Cc2nc(C)c(C)n2C)C[C@@H]1C(C)C 93.6%
CN(C)c1ccc(C(=O)N2CCN3C(=O)N(Cc4ccccc4)C(=O)[C@H]3C2)cc1 -1.71% [at 57.5 µM]
COc1ccc(CC(=O)N(C)Cc2ccc(F)cc2)cc1 -0.267% [at 57.5 µM]

Gathered by group, those above with an NH in an aromatic ring
activity, negative = inhibition, inactive:
Cc1[nH]c2c(c1C(=O)N1CCCC(CCc3ccc(F)cc3)C1)C(=O)CCC2 (configuration not stated) -1.72%
CCC1(N2CCN(C(=O)CCc3c[nH]c4ccccc34)CC2)CCN(C(=O)NC)C1 (configuration not stated) 3.42%
COc1ccc(NC(=O)Cc2c[nH]c3ncc(-c4ccccc4)cc23)cc1 -5.41% [at 57.5 µM]
O=C1NCC2(CCCN(C(=O)CCc3ccc(=O)[nH]n3)C2)O1 (configuration not stated) -0.727%
O=C(Cc1c[nH]c2ncc(-c3ccccc3)cc12)NCCCn1ccnc1 -11.4% [at 57.5 µM]
O=C(Cc1c[nH]c2ncc(-c3cccnc3)cc12)NC1CC1 -9.07% [at 76.7 µM]
O=C(c1ccccc1)N1CCC(c2nn(-c3ccccc3)c(=O)[nH]2)CC1 2.66%
Cc1ccccc1-c1cnc2n[nH]c(-c3ccccc3)c2n1 15% [at 76.7 µM]
Cc1ccc(C)c(-c2cc(C(=O)N3CCCC3c3nncn3C(C)C)[nH]n2)c1 (configuration not stated) 2.36%
O=C(NC1CCN(c2cc(-c3ccc(F)cc3)[nH]n2)CC1)c1cccc2[nH]ccc12 -6.2%
O=C(O)c1cccc(-c2n[nH]c3c2CC(=O)N(CC2CCOCC2)C3)c1 -18% [at 57.5 µM]
C=CCN1CCN(C(=O)[C@@H]2Cc3c[nH]c4cccc(c34)[C@H](CC(C)C)N2)CC1 3.27% [at 57.5 µM]
